Experimental data from paper doi:10.1101/2025.11.03.684091.
The exact form of at least one protein or probe is not confirmed.

Key:
[1] = tested on: AhNIN1 C-terminal (Arachis hypogaea); assay: EMSA; conditions: ~4.5 ug protein; recombinant protein
[2] = tested on: AhNIN2 C-terminal (Arachis hypogaea); assay: EMSA; conditions: ~4.5 ug protein; recombinant protein

“AATGGCTTCTTGCTAGCTCCATTATTGCATGCCATGAAAAGCCAAC (double strand) [AhLgh1 NRCE probe P1]”: binds [1]; binds [2].
